Results reported in patent publication US20030036169A1.
No constants are given. Whether binding was seen depends on the method and setting. Some results given as binding are weak or reduced against the parent protein; the word gives no strength.

Amino acid sequences for entries named in this document (tags omitted). A change or cut given only in a name is not applied to a line headed by its entry.
UniProt O35431: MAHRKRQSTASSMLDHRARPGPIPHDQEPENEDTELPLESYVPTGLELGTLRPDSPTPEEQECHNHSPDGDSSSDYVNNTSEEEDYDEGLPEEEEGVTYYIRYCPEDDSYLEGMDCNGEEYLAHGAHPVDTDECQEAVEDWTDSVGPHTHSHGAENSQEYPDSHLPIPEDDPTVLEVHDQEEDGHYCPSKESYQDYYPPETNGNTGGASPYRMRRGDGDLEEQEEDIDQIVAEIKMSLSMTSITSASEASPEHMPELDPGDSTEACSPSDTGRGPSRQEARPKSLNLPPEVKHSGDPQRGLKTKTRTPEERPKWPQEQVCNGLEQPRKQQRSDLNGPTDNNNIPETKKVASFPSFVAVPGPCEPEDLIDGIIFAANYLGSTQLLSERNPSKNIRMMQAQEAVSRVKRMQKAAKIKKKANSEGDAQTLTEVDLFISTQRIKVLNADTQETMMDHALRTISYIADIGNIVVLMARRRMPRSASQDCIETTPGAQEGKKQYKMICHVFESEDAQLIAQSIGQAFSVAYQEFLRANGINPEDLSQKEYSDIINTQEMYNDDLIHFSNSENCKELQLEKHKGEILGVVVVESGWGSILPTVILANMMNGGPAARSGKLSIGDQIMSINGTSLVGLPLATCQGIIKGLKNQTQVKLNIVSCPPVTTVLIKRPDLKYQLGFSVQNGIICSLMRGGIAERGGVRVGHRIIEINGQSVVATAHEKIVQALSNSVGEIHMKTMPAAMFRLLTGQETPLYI
UniProt O35430: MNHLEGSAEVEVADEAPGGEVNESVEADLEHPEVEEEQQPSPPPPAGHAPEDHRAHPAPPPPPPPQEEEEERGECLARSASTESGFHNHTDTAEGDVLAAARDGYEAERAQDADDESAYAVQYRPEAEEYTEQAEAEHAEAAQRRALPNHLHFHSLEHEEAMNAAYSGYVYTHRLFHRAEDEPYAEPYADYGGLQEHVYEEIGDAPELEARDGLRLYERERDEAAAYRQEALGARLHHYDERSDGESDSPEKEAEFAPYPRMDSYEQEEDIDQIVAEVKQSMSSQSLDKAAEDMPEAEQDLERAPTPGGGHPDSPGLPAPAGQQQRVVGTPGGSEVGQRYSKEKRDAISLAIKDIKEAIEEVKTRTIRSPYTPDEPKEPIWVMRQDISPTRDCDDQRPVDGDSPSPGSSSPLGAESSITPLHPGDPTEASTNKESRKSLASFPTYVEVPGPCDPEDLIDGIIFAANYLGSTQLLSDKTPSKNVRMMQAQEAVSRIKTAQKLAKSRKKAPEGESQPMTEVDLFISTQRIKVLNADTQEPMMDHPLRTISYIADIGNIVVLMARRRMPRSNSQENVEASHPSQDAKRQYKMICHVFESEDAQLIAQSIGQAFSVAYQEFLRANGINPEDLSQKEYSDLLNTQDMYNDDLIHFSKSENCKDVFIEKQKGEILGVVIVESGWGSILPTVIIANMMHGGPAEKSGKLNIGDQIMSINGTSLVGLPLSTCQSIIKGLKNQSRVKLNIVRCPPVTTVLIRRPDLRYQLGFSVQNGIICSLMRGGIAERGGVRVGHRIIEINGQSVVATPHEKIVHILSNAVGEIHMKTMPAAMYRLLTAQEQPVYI
UniProt O70248: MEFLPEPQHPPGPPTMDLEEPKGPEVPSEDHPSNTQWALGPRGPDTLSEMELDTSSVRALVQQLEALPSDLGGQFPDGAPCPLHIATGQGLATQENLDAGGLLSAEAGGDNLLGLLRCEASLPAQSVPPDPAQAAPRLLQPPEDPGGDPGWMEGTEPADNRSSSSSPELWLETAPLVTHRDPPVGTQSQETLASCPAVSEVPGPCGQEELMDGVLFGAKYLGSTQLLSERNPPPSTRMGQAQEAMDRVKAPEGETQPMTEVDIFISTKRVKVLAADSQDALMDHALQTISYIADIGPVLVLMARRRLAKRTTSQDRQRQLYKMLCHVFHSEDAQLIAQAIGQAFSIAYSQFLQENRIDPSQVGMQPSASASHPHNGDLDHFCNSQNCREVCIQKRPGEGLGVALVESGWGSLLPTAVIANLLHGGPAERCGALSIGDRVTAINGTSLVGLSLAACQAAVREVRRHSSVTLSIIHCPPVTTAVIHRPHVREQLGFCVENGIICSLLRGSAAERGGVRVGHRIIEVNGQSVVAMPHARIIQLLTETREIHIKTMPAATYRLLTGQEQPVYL

How the values were obtained:
Mint 2 (rat) = Mint 2 (rat) (UniProt O35431); test: soluble peptide (0.1 or 1.0 mg/ml) competing with the immobilized APP tail peptide for rat brain Mint 2
Mint 1 (rat) = Mint 1 (rat) (UniProt O35430); test: soluble peptide (0.1 or 1.0 mg/ml) competing with the immobilized APP tail peptide for rat brain Mint 1
Mint 3 (rat) = Mint 3 (rat) (UniProt O70248); test: soluble peptide (0.1 or 1.0 mg/ml) competing with the immobilized APP tail peptide for rat brain Mint 3

binding (Mint 2 (rat)): binds | binding (Mint 1 (rat)): binds | binding (Mint 3 (rat)): binds
Binder: QNGYENPTYKFFEQ [soluble peptide …, native APP NPTY motif]
